Test results taken from paper PMC6547012, “TCP Transcription Factors Associate with PHYTOCHROME INTERACTING FACTOR 4 and CRYPTOCHROME 1 to Regulate Thermomorphogenesis in Arabidopsis thaliana” (iScience, 2019).
These are yes or no findings as the source states them, for the method shown. In cells and extracts the contact can be indirect. Some results given as binding are weak or reduced against the parent protein; the word gives no strength. Sequences can lack the tags named with a protein. Each block holds one molecule with its values, some of them ahead of it.

Amino acid sequences for entries named in this document (tags omitted).
UniProt Q43125: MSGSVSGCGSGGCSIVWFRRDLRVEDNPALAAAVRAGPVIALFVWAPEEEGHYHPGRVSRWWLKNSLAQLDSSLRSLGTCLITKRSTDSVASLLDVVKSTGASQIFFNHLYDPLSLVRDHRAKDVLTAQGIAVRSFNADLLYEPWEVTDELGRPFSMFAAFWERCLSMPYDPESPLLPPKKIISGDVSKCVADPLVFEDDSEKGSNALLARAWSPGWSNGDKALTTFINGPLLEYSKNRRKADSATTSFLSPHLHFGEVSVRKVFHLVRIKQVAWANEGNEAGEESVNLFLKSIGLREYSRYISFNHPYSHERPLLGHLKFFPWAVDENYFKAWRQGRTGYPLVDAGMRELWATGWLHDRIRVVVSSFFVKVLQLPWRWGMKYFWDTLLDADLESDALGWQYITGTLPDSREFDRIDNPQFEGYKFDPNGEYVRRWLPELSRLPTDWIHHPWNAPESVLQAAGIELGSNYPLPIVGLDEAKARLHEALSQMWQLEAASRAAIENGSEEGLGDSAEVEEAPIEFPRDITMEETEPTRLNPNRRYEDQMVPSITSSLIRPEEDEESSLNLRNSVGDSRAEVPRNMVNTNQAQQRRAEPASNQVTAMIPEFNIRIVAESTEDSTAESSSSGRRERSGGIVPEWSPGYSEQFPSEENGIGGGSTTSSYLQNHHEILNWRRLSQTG

Columns and labels:
[1] = biological target: T1, TCP17-nYFP (Arabidopsis thaliana) (UniProt Q9LEZ9); experiment: split reporter; BiFC; Nicotiana benthamiana leaves co-infiltrated with Agrobacterium harboring nYFP and cYFP fusions; fluorescence in the nucleus
T1 sequence: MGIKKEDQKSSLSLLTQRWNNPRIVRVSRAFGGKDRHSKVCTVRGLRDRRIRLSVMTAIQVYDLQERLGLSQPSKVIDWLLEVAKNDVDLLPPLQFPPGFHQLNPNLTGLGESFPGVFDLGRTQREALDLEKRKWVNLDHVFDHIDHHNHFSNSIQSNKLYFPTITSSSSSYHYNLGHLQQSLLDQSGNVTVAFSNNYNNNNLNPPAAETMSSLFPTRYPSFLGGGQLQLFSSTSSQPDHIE

[2] = biological target: T2, TCP5-nYFP (Arabidopsis thaliana) (UniProt Q9FME3); experiment: as above
T2 sequence: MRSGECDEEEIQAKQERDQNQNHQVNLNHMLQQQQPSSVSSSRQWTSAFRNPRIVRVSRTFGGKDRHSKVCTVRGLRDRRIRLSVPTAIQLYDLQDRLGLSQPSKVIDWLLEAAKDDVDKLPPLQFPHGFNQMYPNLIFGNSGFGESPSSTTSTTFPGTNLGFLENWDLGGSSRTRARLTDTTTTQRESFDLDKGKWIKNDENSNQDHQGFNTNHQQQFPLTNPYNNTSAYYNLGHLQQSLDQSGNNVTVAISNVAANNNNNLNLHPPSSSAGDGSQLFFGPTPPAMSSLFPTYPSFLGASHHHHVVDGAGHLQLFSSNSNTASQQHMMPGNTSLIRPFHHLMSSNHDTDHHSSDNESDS

[3] = biological target: T3, TCP17-FLAG (Arabidopsis thaliana) (UniProt Q9LEZ9); experiment: co-IP; anti-FLAG affinity matrix (Sigma) on plant extracts, plants at 22°C or 28°C; blots with anti-FLAG and anti-CRY1
T3 sequence: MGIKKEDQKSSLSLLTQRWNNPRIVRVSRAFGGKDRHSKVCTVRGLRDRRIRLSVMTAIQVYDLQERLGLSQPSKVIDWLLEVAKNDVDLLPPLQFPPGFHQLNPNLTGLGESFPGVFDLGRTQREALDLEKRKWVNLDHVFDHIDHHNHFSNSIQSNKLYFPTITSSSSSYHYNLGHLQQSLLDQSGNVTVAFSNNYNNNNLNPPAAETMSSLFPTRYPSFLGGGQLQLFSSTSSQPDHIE

[4] = biological target: T1, TCP17-nYFP (Arabidopsis thaliana); experiment: split reporter; BiFC of TCP17-nYFP and PIF4-cYFP in N. benthamiana leaves with or without co-expression of 35S::CRY1-HA
[5] = biological target: T4, PIF4-cYFP (Arabidopsis thaliana) (UniProt Q8W2F3); experiment: as above
T4 sequence: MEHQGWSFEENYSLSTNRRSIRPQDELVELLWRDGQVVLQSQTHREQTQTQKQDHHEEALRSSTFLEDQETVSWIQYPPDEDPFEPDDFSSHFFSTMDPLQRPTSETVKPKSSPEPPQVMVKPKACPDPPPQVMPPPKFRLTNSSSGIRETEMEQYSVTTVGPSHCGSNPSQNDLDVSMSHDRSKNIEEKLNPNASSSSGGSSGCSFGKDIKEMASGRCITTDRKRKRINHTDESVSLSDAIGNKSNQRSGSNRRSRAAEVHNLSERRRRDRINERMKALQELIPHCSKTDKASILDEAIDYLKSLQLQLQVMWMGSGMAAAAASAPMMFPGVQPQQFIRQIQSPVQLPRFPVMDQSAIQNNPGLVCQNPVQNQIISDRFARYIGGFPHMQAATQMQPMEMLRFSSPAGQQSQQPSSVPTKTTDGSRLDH

[6] = biological target: T4, PIF4-cYFP (Arabidopsis thaliana); experiment: split reporter; BiFC; Nicotiana benthamiana leaves co-infiltrated with Agrobacterium harboring nYFP and cYFP fusions; fluorescence in the nucleus

Molecule: CRY1 (in Arabidopsis plants, detected with anti-CRY1) (from UniProt Q43125 1-681)
- binding [3]: binds

Molecule: CRY1-HA (from UniProt Q43125 1-681)
- binding [4]: binds

B1: MBP-TCP17 (natural protein, Arabidopsis thaliana, UniProt Q9LEZ9 1-242, looked up)
chain: MGIKKEDQKSSLSLLTQRWNNPRIVRVSRAFGGKDRHSKVCTVRGLRDRRIRLSVMTAIQVYDLQERLGLSQPSKVIDWLLEVAKNDVDLLPPLQFPPGFHQLNPNLTGLGESFPGVFDLGRTQREALDLEKRKWVNLDHVFDHIDHHNHFSNSIQSNKLYFPTITSSSSSYHYNLGHLQQSLLDQSGNVTVAFSNNYNNNNLNPPAAETMSSLFPTRYPSFLGGGQLQLFSSTSSQPDHIE
notes: TCP17, Arabidopsis thaliana; also called MBP-tagged TCP17; source: E. coli expressed and purified
- binding [5]: binds
- binding [6]: binds

Other lines, results leading:

- binding [1]: binds
- binding [2]: binds
Molecule: CRY1-cYFP (from UniProt Q43125 1-681)

- binding [6]: binds
B2: TCP5-nYFP (protein, UniProt Q9FME3 1-360)
chain: MRSGECDEEEIQAKQERDQNQNHQVNLNHMLQQQQPSSVSSSRQWTSAFRNPRIVRVSRTFGGKDRHSKVCTVRGLRDRRIRLSVPTAIQLYDLQDRLGLSQPSKVIDWLLEAAKDDVDKLPPLQFPHGFNQMYPNLIFGNSGFGESPSSTTSTTFPGTNLGFLENWDLGGSSRTRARLTDTTTTQRESFDLDKGKWIKNDENSNQDHQGFNTNHQQQFPLTNPYNNTSAYYNLGHLQQSLDQSGNNVTVAISNVAANNNNNLNLHPPSSSAGDGSQLFFGPTPPAMSSLFPTYPSFLGASHHHHVVDGAGHLQLFSSNSNTASQQHMMPGNTSLIRPFHHLMSSNHDTDHHSSDNESDS
